This assay in a line: qHTS Assay for Modulators of Lamin A Splicing. To be noted: HeLa LMNA splicing GFP/RFP minigene ratio, 48 h. In a few lines: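 Read-out is the ratio of GFP to DsRed2 object intensity, acquired by 488 nm laser-scanning cytometry on HeLa lamin A-EGFP minigene reporter cells. Compound incubation 48 hrs at 37 °C in Opti-MEM with 2% FBS; DMSO 0.5% final.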
Background: In qHTS, concentration-response curves come from the screen itself.

Where [1] appears, read: measured here: GFP splicing reporter channel.
Setting [2] is: measured here: RFP viability control channel.

This is one part of the list. The main result of the screen is listed elsewhere. These columns were measured beside it and carry no call. The list favours compounds with an active or inconclusive main result. Words in brackets tell the shape of the fitted curve; partial curves, single points and poor fits give uncertain potencies.

`C=CCn1c(SCC(=O)Nc2sccc2C(N)=O)nc2ccccc2c1=O`: the AC50 (in general, the concentration at which the activity in the assay is half-maximal) runs as follows: under setting [1], 10 µM [rising, partial curve]; under setting [2], 11.2 µM [rising, partial curve].
`COc1ccc(Nc2sc(C(=O)c3ccccc3)c(N)c2C(=O)Nc2cc(C)ccc2C)c(OC)c1`: under setting [2], the half-maximal activity concentration (AC50) was 11.2 µM [rising, partial curve, poor fit].
For `CCOC(=O)c1sc2nc3c(SCCC(=O)O)cc(C(=O)c4cc(OC)ccc4O)cn3c(=O)c2c1C`, the AC50 under setting [2] was 2.82 µM [rising, single point].
In the case of `Nc1ccc(CCNc2ncnc3c2ncn3C2OC(CO)C(O)C2O)cc1` (stereo unspecified), under setting [2], the AC50 was 6.31 µM [falling, partial curve, poor fit].
On to `CCOc1cc(/C=N/NC(=O)c2nn(C)cc2Br)ccc1OCc1ccccc1`, for which the AC50 under setting [1] is 3.16 µM [rising, single point].
`COc1ccccc1N1CCN(C(=O)NC23CC4CC(CC(C4)C2)C3)CC1`: the AC50 under setting [2] was 3.55 µM [falling, single point].
For the compound `Cc1nn(Cc2ccc(Cl)cc2)c(C)c1NC(=O)c1ccc([N+](=O)[O-])cc1`, the AC50 under setting [2] was 17.8 µM [rising, single point].
Take `Cc1nn2c(=O)cc(COC(=O)c3ccc(NC(=O)COc4ccc(Cl)cc4)cc3)nc2s1`: the AC50 under setting [1] was 2.82 µM [falling, single point].
Take `C/C(=N\NC(=S)Nc1ccc(C(C)C)cc1)c1ccc2c(c1)OCO2`: the AC50 reads like this: under setting [1], 8.91 µM [rising, partial curve]; under setting [2], 3.16 µM [rising, full curve, poor fit].
For `O=C(CSCc1ccc(Cl)cc1)Nc1ccc(S(=O)(=O)N2CCCCCC2)cc1`, under setting [2], the AC50 was 17.8 µM [rising, partial curve].
As to `CCOC(=O)CSC1=C(C#N)C(c2ccc(C)s2)CC(=O)N1` (stereo unspecified), under setting [2], the AC50 was 15.8 µM [rising, partial curve, poor fit].
With `COc1cccc(C2Cc3ccccc3C(=O)O2)c1` (stereo unspecified), the AC50 by setting is: under setting [1], 11.2 µM [rising, partial curve]; under setting [2], 7.94 µM [rising, partial curve].
As to `COC(=O)[C@H](Cc1ccccc1)NC(=O)O[C@H]1C(=O)c2ccc(OC)cc2O[C@@H]1c1ccc2c(c1)OCO2`, the AC50 is 3.98 µM [rising, single point] under setting [1] and 5.62 µM [rising, single point] under setting [2].
Consider `CCCCNC(=O)C1CCN(Cc2ccc(OCc3ccccc3)cc2)CC1`, for which, under setting [2], the half-maximal activity concentration (AC50) was 14.1 µM [rising, partial curve].
Consider `N#Cc1nc(Cc2cccc3ccccc23)oc1NCc1ccc(F)cc1`, for which, under setting [2], the AC50 was 14.1 µM [rising, partial curve].
In the case of `CCOC(=O)c1c(NC2=NS(=O)(=O)c3ccccc32)sc2c1CCCCC2`, the AC50 is 8.91 µM [falling, partial curve] under setting [1] and 4.47 µM [falling, full curve, poor fit] under setting [2].
For the compound `Cc1ccccc1C(=O)NNC(=S)NC(=O)c1cccnc1`, the AC50 is, setting by setting: under setting [1], 12.6 µM [rising, single point]; under setting [2], 20 µM [rising, single point].
With `COc1ccc(NC(=O)C2CCC(C(C)(C)C)CC2)cc1S(=O)(=O)N1CCCCC1` (stereo unspecified), under setting [2], the AC50 is 8.91 µM [rising, partial curve].
For the compound `Cc1cc(C(=O)NC(=S)Nc2ccccc2N2CCOCC2)ccc1[N+](=O)[O-]`, the AC50 is 10 µM [rising, partial curve, poor fit] under setting [1] and 11.2 µM [rising, partial curve, poor fit] under setting [2].
Turning to `Cc1cc(C)nc(NS(=O)(=O)c2ccc(NC(=O)Nc3ccccc3)cc2)n1`, the concentration at half-maximal activity (AC50) under setting [2] is 5.62 µM [falling, partial curve].
Turning to `CCc1ccc(-c2cc(C(=O)Nc3ccc(S(=O)(=O)NC(C)=O)cc3)c3ccccc3n2)cc1`, under setting [1], the AC50 was 31.6 µM [rising, partial curve].
On to `OC(CN1CCN(c2cccc(Cl)c2)CC1)C(c1ccccc1)c1ccccc1` (stereo unspecified), for which the AC50 under setting [2] was 0.00501 µM [falling, full curve, poor fit].
As for `COc1ccc(-c2nnc(SCC(=O)c3ccc(C)o3)o2)cc1`, the concentration at half-maximal activity (AC50) by setting is: under setting [1], 17.8 µM [rising, single point]; under setting [2], 35.5 µM [rising, single point].
On to `C=CCn1c2ccccc2c2nnc(SCC(=O)Nc3c(C)n(C)n(-c4ccccc4)c3=O)nc21`, for which, under setting [1], the AC50 was 35.5 µM [rising, single point].
For `Cc1ccc(-c2nc(COC(=O)c3c(C)noc3C)cs2)cc1`, the AC50 under setting [2] is 7.94 µM [rising, partial curve].
Take `O=C(CCCc1nc(-c2ccccc2)no1)Nc1cc(C(F)(F)F)cc(C(F)(F)F)c1`: the AC50 is 35.5 µM [falling, single point] under setting [1] and 35.5 µM [falling, single point] under setting [2].
Consider `CCCC(=O)Nc1ccc2c(c1)c1ccccc1n2CC`, for which the AC50 under setting [2] is 15.8 µM [rising, single point].
As for `CCN(CC)S(=O)(=O)c1cccc(NC(=S)NC(=O)/C=C/c2ccc(S(=O)(=O)N3CCOCC3)cc2)c1`, the AC50 under setting [2] was 31.6 µM [rising, single point].
Regarding `C=CCn1c(Cc2cccs2)nnc1SCC(=O)Nc1ccc(C(=O)OCC)cc1`, the AC50 by setting is: under setting [1], 14.1 µM [rising, single point]; under setting [2], 14.1 µM [rising, single point].
On to `Cc1nn(-c2ccccc2)c2c1C(c1ccc(Cl)cc1)N(c1ccccc1)C(=O)N2` (stereo unspecified), for which the concentration at half-maximal activity (AC50) is 5.62 µM [rising, full curve, poor fit] under setting [1] and 17.8 µM [rising, partial curve] under setting [2].
In the case of `COC/C=C/C1=CC2=CC(=O)C(C)(OC(=O)c3cnc4ccccc4n3)C(=O)C2=CN1Cc1ccc(OC)cc1` (stereo unspecified), the AC50 under setting [2] is 6.31 µM [rising, single point].
Take `O=C(NC(=S)Nc1cc([N+](=O)[O-])ccc1Cl)c1ccccc1`: under setting [1], the AC50 was 35.5 µM [rising, single point].
For `CN(C)NC1CC(=O)N(c2ccccc2)C1=O` (stereo unspecified), the AC50 runs as follows: under setting [1], 20 µM [falling, partial curve, poor fit]; under setting [2], 11.2 µM [falling, partial curve].
Consider `O=C(NCC1CCCO1)c1ccc(Oc2ccc([N+](=O)[O-])cc2)cc1` (stereo unspecified), for which the AC50 under setting [1] was 0.0355 µM [falling, full curve, poor fit].
Turning to `Cc1ccc(NC(=O)c2cnc(N3CCCCC3)c3ccccc23)cc1Cl`, the AC50 under setting [1] is 15.8 µM [falling, single point].
As to `CCN(CC)c1ccc(/C=N/OC(C)C(=O)Nc2ccc(C)cc2)cc1` (stereo unspecified), the AC50 under setting [2] is 31.6 µM [rising, single point].
Take `CCCCN(C)C1=CC2=CC(=C(C#N)C#N)CCC2CC1` (stereo unspecified): the concentration at half-maximal activity (AC50) under setting [1] was 0.631 µM [falling, full curve] and the AC50 under setting [2] was 0.501 µM [falling, full curve].
On to `CCc1cccc(CC)c1NC(=S)NCCc1ccc(O)c(O)c1`, for which the AC50 under setting [1] is 35.5 µM [falling, single point].
As for `COc1cc2c(cc1NC(=S)NC(=O)c1c(OC)cccc1OC)oc1ccccc12`, the AC50 by setting is: under setting [1], 2 µM [rising, full curve, poor fit]; under setting [2], 3.16 µM [rising, full curve].
For the compound `Cc1n[nH]c(C)c1CCc1nc2c3ccccc3nc(SCC(=O)Nc3ccc(F)cc3)n2n1`, the AC50 reads like this: under setting [1], 22.4 µM [falling, partial curve, poor fit]; under setting [2], 22.4 µM [falling, partial curve, poor fit].
For the compound `O=C(/C=C/c1ccccc1)CC(O)(c1ccccc1)C(F)(F)C(F)F` (stereo unspecified), the half-maximal activity concentration (AC50) is 35.5 µM [falling, single point] under setting [1] and 35.5 µM [falling, single point] under setting [2].
Turning to `COc1cc(C2CC(=O)NC(SCC(=O)Nc3ccccc3C)=C2C#N)ccc1O` (stereo unspecified), the concentration at half-maximal activity (AC50) runs as follows: under setting [1], 3.98 µM [falling, single point]; under setting [2], 3.16 µM [falling, single point].
`Cc1cccc(Nc2nc3ccccc3s2)c1C`: the AC50 was 3.55 µM [rising, partial curve] under setting [1] and 8.91 µM [rising, partial curve, poor fit] under setting [2].
`COCCNc1ccc(S(=O)(=O)N2CCCC2)cc1[N+](=O)[O-]`: under setting [2], the AC50 was 17.8 µM [rising, single point].
On to `Cn1c(=O)[nH]c(=O)c2c1nc(Br)n2CCCCSc1nc2ccccc2o1`, for which the AC50 was 22.4 µM [rising, single point] under setting [1] and 17.8 µM [rising, single point] under setting [2].
On to `CC1(C)CC2CC(C)(CN2C(=O)COC(=O)c2ccc(Cl)cc2N)C1` (stereo unspecified), for which, under setting [2], the AC50 is 22.4 µM [rising, single point].
For the compound `C(#Cc1ccccc1)C[N+]1(CC#Cc2ccccc2)CCCC1`, the AC50 reads like this: under setting [1], 11.2 µM [rising, partial curve]; under setting [2], 22.4 µM [rising, partial curve].
For `COc1ccc(Cl)cc1NC(=O)C(C)N1CCc2ccccc21` (stereo unspecified), the concentration at half-maximal activity (AC50) under setting [1] was 0.0631 µM [rising, full curve, poor fit].
For the compound `CCCCn1c(NC(=O)c2ccccc2Cl)c(C#N)c2nc3ccccc3nc21`, the AC50 by setting is: under setting [1], 17.8 µM [falling, single point]; under setting [2], 31.6 µM [falling, single point].
On to `Clc1ccc(N2CCN(Cc3c[nH]c4ncccc34)CC2)cc1`, for which the AC50 under setting [2] is 0.00501 µM [falling, full curve, poor fit].
As to `COc1cc(OC)cc(C(=O)Nn2cc(C(=O)Nc3c(F)cccc3F)c3ccccc3c2=O)c1`, the AC50 was 35.5 µM [rising, single point] under setting [1] and 35.5 µM [rising, single point] under setting [2].
`Cc1cc(C(=O)CSc2nc(N)cc(=O)[nH]2)c(C)n1-c1cccc(F)c1`: the concentration at half-maximal activity (AC50) was 1 µM [rising, single point] under setting [1] and 3.16 µM [rising, full curve] under setting [2].
As to `CCS(=O)(=O)N1CCC(c2nc(-c3ccc(C)cc3)no2)CC1`, the AC50 under setting [2] is 12.6 µM [rising, partial curve].

(Values after PubChem BioAssay AID1487 (National Center for Advancing Translational Sciences (NCATS), 2009).)
